# Data: PubChem BioAssay AID1487 (National Center for Advancing Translational Sciences (NCATS), 2009)
# The list shows a part of the results. Shown are side measurements of this screen, not its main read-out; they come without a call. Compounds called inactive in the main read-out are mostly missing here. Words in brackets tell the shape of the fitted curve; partial curves, single points and poor fits give uncertain potencies.
# Assay: qHTS Assay for Modulators of Lamin A Splicing
# Conditions: HeLa LMNA splicing GFP/RFP minigene ratio, 48 h
# Procedure, shortened: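 S3 HeLa cells stably expressing lamin A-EGFP splicing minigene plus DsRed2, 600 cells/well, 48 h compound exposure at 37C. Laser-scanning cytometry; analysed as GFP (500-530 nm)/RFP (575-640 nm) total intensity ratio; 0.5% DMSO vehicle.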
# [1] = measured here: RFP viability control channel
# [2] = measured here: GFP splicing reporter channel
Compound,AC50 [1],AC50 [2]
Cc1ccc(N2C(=O)CC(N3CCN(C4CCc5ccccc5C4)CC3)C2=O)cc1 (centres undefined),"0.251 µM [falling, full curve, poor fit]",
Cc1cc(Nc2nc3ccccc3nc2Cl)n(-c2ccccc2)n1,"2 µM [falling, partial curve, poor fit]","35.5 µM [falling, single point]"
CCOC(=O)C1CCN(S(=O)(=O)c2ccc(-n3cnnn3)c(C)c2)CC1,"12.6 µM [rising, partial curve, poor fit]","12.6 µM [rising, partial curve, poor fit]"
O=C(Nc1ncc(Cc2ccc(SC(F)F)cc2)s1)c1ccccc1,"17.8 µM [falling, single point]","15.8 µM [falling, single point]"
COc1ccc(C2c3cc(OC)c(OC)cc3CCN2S(C)(=O)=O)cc1OC (centres undefined),"0.112 µM [falling, partial curve, poor fit]","1.12 µM [falling, partial curve, poor fit]"
CCCN(CC(=O)Nc1ccc(Cl)cc1Cl)Cc1cc(=O)n2ccsc2n1,"8.91 µM [falling, partial curve]",
COc1cc(C(=O)NCc2nnc(SCC(=O)Nc3nc4ccccc4s3)o2)cc(OC)c1OC,"0.794 µM [rising, single point]","0.891 µM [rising, full curve, poor fit]"
Cc1ccc2c(c1)C(c1ccc(F)cc1)N(C(=O)c1cc3ccccc3oc1=O)CC(=O)N2 (centres undefined),"14.1 µM [falling, partial curve]",
CCCNC(=O)Cn1nc(C)c2c(C)n(-c3ccccc3)nc2c1=O,,"35.5 µM [rising, single point]"
Cc1nn(-c2ccccc2)c(C)c1/C=N/NC(=O)c1cc(-c2cccc3ccccc23)n[nH]1,"15.8 µM [rising, partial curve]",
Cc1ccc(C)c2sc(NC(=O)c3nc4ccccc4s3)nc12,"0.224 µM [rising, partial curve]",
COc1ccc(OC)c([C@H](O)CNC(=O)CN)c1,"3.16 µM [falling, single point]","0.251 µM [falling, partial curve]"
COc1ccc(CNc2ncncc2-c2ccoc2)c(OC)c1,,"17.8 µM [falling, partial curve, poor fit]"
COc1cc(NS(=O)(=O)c2ccc(C)c(C)c2)c(OC)cc1Cl,"12.6 µM [rising, partial curve]","12.6 µM [rising, single point]"
O=C(c1ccc(Cl)cc1)c1ccc(OCC(=O)N2CCOCC2)cc1,"4.47 µM [rising, partial curve]","0.316 µM [rising, full curve]"
O=C(CNc1ccc2c(c1)OCO2)N/N=C\c1cn(Cc2ccccc2)c2ccccc12,"28.2 µM [rising, single point]","20 µM [rising, single point]"
COc1cc(CNc2ccc(CNc3ncn[nH]3)cc2)cc(Cl)c1OCc1ccccc1,"15.8 µM [rising, single point]",
COc1ccc(NC(=O)[C@@H](NC(=O)c2ccccc2)C(C)C)cc1S(=O)(=O)N1CCCCC1,"17.8 µM [rising, single point]",
O=C(CSc1nnc2ccccn12)NCc1ccco1,"0.0891 µM [falling, full curve, poor fit]",
CC(C)N1CCC(N2CCN(CCCc3ccccc3)CC2CCO)CC1 (centres undefined),"1.12 µM [falling, partial curve]","1 µM [falling, partial curve]"
O=C(c1ccco1)N1CCN(S(=O)(=O)/C=C/c2ccccc2)CC1,"2.51 µM [falling, partial curve]",
CCCOC(=O)c1ccc(Nc2cc(C)nc3ncnn23)cc1,"31.6 µM [rising, single point]","12.6 µM [rising, single point]"
COc1ccc(CNC(=O)CN2CCC(C(=O)c3ccc(OC)cc3)CC2)cc1,"14.1 µM [rising, partial curve]","15.8 µM [rising, partial curve, poor fit]"
Clc1ccc(-c2csc(N3CCSCC3)n2)cc1,,"35.5 µM [rising, single point]"
COc1cc(CNc2ccc(C)c(C)c2)cc(OC)c1OC,"35.5 µM [falling, single point]",
CCN(CC)C(=O)CSc1nnc(-c2ccc(F)cc2)n1N,,"5.62 µM [rising, single point]"
Cc1cc2cc(CNC(=O)CCC(=O)O)ccc2n1C,,"0.00282 µM [falling, full curve, poor fit]"
Cc1ccc(C2CC(c3cccs3)=NN2C(=O)c2ccco2)o1 (centres undefined),"0.00501 µM [falling, full curve]","0.00447 µM [falling, full curve, poor fit]"

Compound,AC50 [1],AC50 [2]
COc1ccc2c(c1)C(=O)/C(=C/C=C/c1ccccc1)CC2,"8.91 µM [rising, partial curve, poor fit]",
COc1cccc(-c2csc(N3CCN(C(=O)Nc4ccc(F)cc4)CC3)n2)c1,"35.5 µM [rising, single point]",
N#CCSc1nc2c(c(=O)n1Cc1ccco1)C1(CCCC1)Cc1ccccc1-2,"35.5 µM [rising, single point]","31.6 µM [rising, single point]"
CCN(CC)c1ccc(C=C2C(=O)OC3(CCCCC3)OC2=O)cc1,"0.562 µM [falling, full curve, poor fit]","0.891 µM [falling, full curve, poor fit]"
CCC(C)NC(=O)c1cc(Sc2nnc(C)s2)nc2ccccc12 (centres undefined),"5.62 µM [rising, full curve]",
COc1ccc(C(=O)c2ccc(N3CCN(C(=O)c4ccc(F)cc4)CC3)c(F)c2)cc1Br,"5.62 µM [rising, single point]",
CCSc1nnc(NC(=O)c2cccc(OCc3c(C)noc3C)c2)s1,"31.6 µM [rising, single point]","35.5 µM [rising, single point]"
Cc1ccnc(NC(=O)/C=C/c2ccccc2[N+](=O)[O-])c1,"1.26 µM [rising, full curve]",
COc1ccc(CCNC(=S)Nc2cc(C)cc(C)c2)cc1,"17.8 µM [rising, single point]","14.1 µM [rising, partial curve]"
CC1CC(=O)N(c2ccc(NCc3ccc(Cl)cc3)c([N+](=O)[O-])c2)C1=O (centres undefined),,"11.2 µM [rising, single point]"
COc1cc(OC)c(C2=NOC(C(=O)Nc3ccc4c(c3)OCO4)C2)cc1Cl (centres undefined),"15.8 µM [rising, partial curve, poor fit]",
COCCNc1ncnc2ccc(-c3cccc(NS(C)(=O)=O)c3)cc12,"10 µM [falling, partial curve, poor fit]","11.2 µM [falling, partial curve]"
Cc1ccc(S(=O)(=O)N(Cc2ccc(F)cc2)Cc2ccco2)cc1,"31.6 µM [rising, single point]","12.6 µM [rising, partial curve]"
COc1ccc(C2CC(c3ccccc3)=NN2C(=O)COC(=O)c2nc3nc(C)cc(C)n3n2)cc1 (centres undefined),"0.355 µM [falling, full curve, poor fit]","0.0631 µM [falling, full curve, poor fit]"
c1ccc(Nc2ncnc3c2oc2ccccc23)cc1,"7.94 µM [rising, partial curve, poor fit]",
Fc1ccc2nc(Nc3nc4c(F)cccc4s3)sc2c1,"28.2 µM [rising, single point]",
COc1ccc(Sc2ccc(NC(=O)c3ccccc3Cl)cc2C#N)cc1,"25.1 µM [falling, single point]","35.5 µM [falling, single point]"
COc1ccc(/C=C2\SC(=O)N(CC(=O)NNC(=O)c3ccccc3O)C2=O)cc1,,"12.6 µM [rising, partial curve, poor fit]"
Cc1cc(C)c(C#N)c(SCc2cc3c(cc2Cl)OCO3)n1,"28.2 µM [falling, single point]","22.4 µM [falling, single point]"
Cc1nc(SCC(=O)NCc2ccco2)[nH]c(=O)c1C,"14.1 µM [falling, partial curve]","14.1 µM [falling, partial curve]"
O=C(Nc1cccc(Cl)c1)c1ccc2c(c1)SC1=NS(=O)(=O)CCN12,,"0.891 µM [rising, full curve, poor fit]"
O=C(C[n+]1ccccc1)Nc1ccc(Oc2ccccc2)cc1,,"35.5 µM [falling, partial curve, poor fit]"
Cc1cc2ccccc2c(=O)n1CC(=O)NCCC1=CCCCC1,,"1.78 µM [rising, partial curve]"
CCc1ccccc1NC(=S)/N=C(\N)Nc1nc(C)c2cc(C)ccc2n1,"15.8 µM [rising, partial curve]",
CCCSc1nnc(NC(=O)Cc2ccc(OC)c(OC)c2)s1,,"0.282 µM [rising, partial curve, poor fit]"
COc1cnc(-c2ccccn2)nc1Oc1ccccc1Cl,"8.91 µM [rising, partial curve]",
CCOC(=O)C1(Cc2ccccc2)CCN(Cc2cc(OC)c3c(c2)OCO3)CC1,"7.08 µM [falling, full curve, poor fit]","0.00316 µM [falling, full curve, poor fit]"
